This is one part of the list. Residues, ends and D or L forms follow the SMILES beside them. *: point of attachment. Cbz = O=C(OCc1ccccc1)*
Key:
Assay in all cases: log2 fold change, soluble protein after heating vs DMSO (PISA); higher = thermal stabilisation; K562 cells, 10 uM, 30 min; active = over 0.2 and 3.5 SD of the protein, either way, in both replicates (recomputed)
erlotinib = compound: C#Cc1cccc(Nc2ncnc3cc(OCCOC)c(OCCOC)cc23)c1 [erlotinib]
In short: (§1)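 K562 cells at 2×10^6 cells/mL were treated for 30 min with 10 μM compound, and aliquots were heated for 3 min over 48°C-58°C before pooling. Extraction used PBS with 0.5% NP-40 at 4°C, and soluble protein was the supernatant after 21,000xg for 90 min, measured by TMTpro 16plex LC-MS/MS with channel sums equalised. Thermal stability values, relative to control samples and from duplicates, are log2 fold changes.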

The chains behind the UniProt entries cited, without tags or fusion partners. Where a name states a change or a piece, a line headed by the entry shows the natural chain unless it says otherwise.
UniProt Q8IY17: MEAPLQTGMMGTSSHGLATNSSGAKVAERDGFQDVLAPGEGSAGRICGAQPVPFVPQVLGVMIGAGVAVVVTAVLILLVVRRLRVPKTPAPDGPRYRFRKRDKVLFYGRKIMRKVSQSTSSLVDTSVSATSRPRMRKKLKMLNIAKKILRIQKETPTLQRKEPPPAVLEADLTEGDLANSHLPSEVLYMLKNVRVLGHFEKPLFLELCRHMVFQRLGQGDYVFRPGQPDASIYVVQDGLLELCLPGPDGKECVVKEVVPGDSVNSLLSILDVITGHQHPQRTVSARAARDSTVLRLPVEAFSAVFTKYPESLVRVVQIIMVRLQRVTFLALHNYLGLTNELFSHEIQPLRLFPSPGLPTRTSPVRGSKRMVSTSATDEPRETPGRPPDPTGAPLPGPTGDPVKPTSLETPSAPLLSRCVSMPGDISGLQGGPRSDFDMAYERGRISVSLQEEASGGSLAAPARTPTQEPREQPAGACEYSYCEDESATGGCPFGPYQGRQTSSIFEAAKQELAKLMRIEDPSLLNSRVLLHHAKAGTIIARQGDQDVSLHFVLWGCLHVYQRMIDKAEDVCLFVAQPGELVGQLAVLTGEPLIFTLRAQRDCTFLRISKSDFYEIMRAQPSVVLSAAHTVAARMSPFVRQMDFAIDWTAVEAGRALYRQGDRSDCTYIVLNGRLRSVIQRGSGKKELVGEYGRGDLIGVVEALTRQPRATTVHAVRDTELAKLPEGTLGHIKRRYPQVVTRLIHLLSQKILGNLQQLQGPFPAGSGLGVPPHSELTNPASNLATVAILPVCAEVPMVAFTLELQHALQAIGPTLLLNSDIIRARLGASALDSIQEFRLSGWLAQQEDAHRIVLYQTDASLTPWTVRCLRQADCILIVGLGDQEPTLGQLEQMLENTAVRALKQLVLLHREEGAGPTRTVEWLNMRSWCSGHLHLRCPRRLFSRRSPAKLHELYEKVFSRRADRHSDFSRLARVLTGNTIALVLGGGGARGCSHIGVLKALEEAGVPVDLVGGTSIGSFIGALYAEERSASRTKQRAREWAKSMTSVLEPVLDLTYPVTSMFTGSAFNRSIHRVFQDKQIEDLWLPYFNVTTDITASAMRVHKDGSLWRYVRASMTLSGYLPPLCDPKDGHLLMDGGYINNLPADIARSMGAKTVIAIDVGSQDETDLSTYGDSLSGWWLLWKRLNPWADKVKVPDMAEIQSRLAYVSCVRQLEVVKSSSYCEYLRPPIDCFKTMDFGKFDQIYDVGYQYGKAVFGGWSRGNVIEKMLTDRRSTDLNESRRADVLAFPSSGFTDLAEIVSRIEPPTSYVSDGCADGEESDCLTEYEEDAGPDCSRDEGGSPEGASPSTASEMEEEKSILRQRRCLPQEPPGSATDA
UniProt Q9UNP9: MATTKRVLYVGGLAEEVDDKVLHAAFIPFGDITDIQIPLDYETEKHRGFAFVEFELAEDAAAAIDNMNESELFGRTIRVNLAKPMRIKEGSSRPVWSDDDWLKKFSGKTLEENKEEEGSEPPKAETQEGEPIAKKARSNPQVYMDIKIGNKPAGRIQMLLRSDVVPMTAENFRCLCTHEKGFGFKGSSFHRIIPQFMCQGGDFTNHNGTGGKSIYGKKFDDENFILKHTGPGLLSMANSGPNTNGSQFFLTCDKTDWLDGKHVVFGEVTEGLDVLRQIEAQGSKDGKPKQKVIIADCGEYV
UniProt P13797: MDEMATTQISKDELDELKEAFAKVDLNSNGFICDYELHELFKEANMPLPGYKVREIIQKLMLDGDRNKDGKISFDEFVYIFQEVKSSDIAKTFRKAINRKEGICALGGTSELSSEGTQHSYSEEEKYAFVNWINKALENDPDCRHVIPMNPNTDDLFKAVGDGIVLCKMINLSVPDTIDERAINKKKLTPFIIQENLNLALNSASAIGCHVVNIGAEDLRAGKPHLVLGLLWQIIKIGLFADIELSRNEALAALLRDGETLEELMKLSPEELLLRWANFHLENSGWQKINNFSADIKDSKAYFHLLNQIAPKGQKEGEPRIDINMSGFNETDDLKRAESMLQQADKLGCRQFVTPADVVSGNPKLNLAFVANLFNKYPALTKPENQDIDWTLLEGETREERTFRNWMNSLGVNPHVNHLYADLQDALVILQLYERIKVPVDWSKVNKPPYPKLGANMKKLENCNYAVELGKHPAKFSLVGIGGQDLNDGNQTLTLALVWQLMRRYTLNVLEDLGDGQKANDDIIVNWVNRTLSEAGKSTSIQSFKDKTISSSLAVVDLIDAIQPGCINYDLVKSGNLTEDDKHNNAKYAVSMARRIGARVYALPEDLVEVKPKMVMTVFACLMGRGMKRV
UniProt P54098: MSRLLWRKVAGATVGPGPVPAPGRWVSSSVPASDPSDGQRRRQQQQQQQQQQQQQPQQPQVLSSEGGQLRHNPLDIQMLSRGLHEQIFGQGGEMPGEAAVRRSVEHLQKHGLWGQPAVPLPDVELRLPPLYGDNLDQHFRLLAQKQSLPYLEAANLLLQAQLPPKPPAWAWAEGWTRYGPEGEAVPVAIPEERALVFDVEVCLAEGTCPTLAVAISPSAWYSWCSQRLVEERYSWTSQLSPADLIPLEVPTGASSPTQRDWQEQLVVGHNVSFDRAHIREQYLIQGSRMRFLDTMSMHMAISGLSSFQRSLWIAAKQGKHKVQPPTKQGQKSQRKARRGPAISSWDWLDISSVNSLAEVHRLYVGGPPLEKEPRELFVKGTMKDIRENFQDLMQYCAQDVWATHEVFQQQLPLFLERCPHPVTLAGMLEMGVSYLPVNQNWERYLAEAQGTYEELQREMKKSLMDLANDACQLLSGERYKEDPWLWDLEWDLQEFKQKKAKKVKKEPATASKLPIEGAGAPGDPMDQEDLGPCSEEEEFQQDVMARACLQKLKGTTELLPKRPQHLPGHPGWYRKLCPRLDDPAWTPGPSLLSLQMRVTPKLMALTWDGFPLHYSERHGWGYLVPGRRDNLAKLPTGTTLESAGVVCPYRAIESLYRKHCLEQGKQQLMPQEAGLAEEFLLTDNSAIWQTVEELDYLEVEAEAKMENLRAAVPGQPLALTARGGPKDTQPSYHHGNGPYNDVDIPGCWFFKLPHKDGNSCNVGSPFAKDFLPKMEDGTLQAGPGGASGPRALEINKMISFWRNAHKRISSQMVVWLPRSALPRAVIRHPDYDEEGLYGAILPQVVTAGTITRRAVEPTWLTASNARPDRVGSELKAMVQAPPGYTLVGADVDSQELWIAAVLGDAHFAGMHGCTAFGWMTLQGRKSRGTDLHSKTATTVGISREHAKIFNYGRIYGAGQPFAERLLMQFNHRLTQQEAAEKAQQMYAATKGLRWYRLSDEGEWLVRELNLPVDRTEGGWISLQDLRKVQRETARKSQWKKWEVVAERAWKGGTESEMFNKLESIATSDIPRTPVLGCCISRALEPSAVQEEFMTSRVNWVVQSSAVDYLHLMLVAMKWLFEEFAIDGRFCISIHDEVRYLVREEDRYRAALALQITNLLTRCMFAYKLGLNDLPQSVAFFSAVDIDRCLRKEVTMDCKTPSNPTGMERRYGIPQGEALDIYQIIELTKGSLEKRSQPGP
UniProt O43314: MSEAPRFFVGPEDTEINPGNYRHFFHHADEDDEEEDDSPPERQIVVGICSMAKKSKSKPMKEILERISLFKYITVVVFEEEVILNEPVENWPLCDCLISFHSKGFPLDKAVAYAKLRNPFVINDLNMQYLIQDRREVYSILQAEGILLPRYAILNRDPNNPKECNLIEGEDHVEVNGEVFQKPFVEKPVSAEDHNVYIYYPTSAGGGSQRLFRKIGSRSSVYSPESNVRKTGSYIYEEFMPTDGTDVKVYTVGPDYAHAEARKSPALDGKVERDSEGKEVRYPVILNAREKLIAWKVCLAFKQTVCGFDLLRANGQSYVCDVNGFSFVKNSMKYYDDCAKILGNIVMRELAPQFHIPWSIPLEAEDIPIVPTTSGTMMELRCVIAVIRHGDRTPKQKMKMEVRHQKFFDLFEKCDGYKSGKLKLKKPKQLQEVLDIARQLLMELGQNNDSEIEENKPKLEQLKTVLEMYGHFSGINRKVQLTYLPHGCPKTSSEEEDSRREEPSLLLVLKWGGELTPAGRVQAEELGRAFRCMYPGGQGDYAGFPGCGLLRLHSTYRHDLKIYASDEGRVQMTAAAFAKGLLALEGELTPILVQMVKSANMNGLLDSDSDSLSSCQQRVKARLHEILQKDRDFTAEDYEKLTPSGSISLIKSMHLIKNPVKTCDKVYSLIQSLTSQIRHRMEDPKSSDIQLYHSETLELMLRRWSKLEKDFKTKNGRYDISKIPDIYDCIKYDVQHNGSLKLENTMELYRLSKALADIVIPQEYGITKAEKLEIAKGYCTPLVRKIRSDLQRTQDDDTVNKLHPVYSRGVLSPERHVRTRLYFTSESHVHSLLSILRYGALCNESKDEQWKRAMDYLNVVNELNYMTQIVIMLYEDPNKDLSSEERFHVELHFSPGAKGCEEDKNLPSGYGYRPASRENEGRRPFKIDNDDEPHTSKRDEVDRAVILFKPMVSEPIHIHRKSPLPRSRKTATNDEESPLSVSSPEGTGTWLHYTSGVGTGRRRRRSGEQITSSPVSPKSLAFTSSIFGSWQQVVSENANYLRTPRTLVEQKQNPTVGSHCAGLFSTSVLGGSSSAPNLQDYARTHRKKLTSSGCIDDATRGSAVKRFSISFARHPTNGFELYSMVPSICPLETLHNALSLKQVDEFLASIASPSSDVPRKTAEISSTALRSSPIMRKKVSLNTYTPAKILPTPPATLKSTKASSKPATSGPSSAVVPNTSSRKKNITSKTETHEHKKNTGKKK
UniProt O15318: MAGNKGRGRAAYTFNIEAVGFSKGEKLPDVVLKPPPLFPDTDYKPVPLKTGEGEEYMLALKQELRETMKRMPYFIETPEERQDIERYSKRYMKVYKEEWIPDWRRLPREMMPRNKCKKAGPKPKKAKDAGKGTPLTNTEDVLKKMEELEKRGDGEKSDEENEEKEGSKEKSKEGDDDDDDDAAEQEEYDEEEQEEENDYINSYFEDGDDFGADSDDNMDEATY
UniProt O60568: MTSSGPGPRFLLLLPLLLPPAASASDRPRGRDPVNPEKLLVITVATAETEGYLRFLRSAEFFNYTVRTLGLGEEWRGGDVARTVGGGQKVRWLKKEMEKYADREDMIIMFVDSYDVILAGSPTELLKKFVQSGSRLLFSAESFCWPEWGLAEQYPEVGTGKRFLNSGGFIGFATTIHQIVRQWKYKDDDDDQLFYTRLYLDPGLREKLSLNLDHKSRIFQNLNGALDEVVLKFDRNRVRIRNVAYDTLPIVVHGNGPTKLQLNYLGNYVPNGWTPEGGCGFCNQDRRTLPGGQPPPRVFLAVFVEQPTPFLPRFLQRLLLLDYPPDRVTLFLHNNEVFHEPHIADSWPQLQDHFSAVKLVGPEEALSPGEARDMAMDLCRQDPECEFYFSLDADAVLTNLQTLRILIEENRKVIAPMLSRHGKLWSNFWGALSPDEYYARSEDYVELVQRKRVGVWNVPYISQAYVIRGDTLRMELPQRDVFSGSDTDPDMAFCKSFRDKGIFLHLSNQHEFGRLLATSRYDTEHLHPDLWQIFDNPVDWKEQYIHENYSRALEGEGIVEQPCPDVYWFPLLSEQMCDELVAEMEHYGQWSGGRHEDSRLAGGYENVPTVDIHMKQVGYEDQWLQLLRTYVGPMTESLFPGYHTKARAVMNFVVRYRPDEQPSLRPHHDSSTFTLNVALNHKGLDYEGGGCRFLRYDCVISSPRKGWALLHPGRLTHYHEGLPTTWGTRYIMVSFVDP
UniProt Q96CD2: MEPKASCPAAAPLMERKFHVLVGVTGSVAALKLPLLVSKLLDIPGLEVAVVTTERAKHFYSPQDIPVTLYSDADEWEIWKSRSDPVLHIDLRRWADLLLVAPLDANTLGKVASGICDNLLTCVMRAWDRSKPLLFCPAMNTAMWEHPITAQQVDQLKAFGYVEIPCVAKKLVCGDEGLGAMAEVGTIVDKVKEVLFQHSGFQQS
UniProt Q9NZ53: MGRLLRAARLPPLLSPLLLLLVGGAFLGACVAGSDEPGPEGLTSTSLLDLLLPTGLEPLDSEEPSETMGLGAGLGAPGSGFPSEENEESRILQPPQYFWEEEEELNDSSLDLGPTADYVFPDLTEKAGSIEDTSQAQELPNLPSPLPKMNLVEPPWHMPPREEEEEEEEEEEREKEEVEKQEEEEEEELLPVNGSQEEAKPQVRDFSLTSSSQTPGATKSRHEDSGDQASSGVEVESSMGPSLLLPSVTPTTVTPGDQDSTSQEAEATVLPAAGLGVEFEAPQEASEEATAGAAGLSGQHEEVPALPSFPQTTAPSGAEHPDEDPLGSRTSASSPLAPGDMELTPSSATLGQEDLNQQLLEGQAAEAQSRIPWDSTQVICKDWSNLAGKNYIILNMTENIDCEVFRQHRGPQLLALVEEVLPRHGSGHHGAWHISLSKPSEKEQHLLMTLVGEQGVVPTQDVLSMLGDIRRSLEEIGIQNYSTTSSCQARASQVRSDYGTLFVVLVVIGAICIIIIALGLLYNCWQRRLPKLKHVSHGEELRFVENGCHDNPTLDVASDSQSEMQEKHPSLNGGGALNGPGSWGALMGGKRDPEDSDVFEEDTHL

[1] = compound: C/C(=N\NC(=O)C1=CC(=CC=C1)S(=O)(=O)N2CCOCC2)/C3=C(C=CC(=C3)Cl)O
In short: as §1

[2] = compound: C1=CC(=C(C=C1Cl)C2=NC3=NC=CN=C3C(=N2)NC4=CC=NC=C4)F
In short: as §1

[3] = compound: C1=CC(=CC=C1C2=NC3=C(N2)C=C(C=C3)C(=O)N)OC4=CC=C(C=C4)Cl
In short: as §1

[4] = compound: C1=CC2=C(C=CC(=C2)/C=C\3/C(=O)NC(=NCC4=CC=CS4)S3)N=C1
In short: as §1

[5] = compound: C1=CC2=NC=CN=C2C=C1/C=C/3\C(=O)NC(=O)S3
In short: as §1

[6] = compound: C1=CC=C(C=C1)C2=NC(=C(N2)C3=CC=NC=C3)C4=CC(=C(C=C4)Cl)O
In short: as §1

[7] = compound: C1=CC=C2C(=C1)C3=NNC4=CC=CC(=C43)C2=O
In short: as §1

[8] = compound: C1CCN(C1)C(=O)NC2=CC=CC(=C2)NC3=NC=C(C(=N3)NCCC4=CN=CN4)Br
In short: as §1

[9] = compound: C1CN(CCC1(CC2=CC=C(C=C2)Cl)N)C3=NC=NC4=C3C=CN4
In short: as §1

IRAK-1-4 Inhibitor I = compound: C1COCCN1CCN2C3=CC=CC=C3N=C2NC(=O)C4=CC(=CC=C4)[N+](=O)[O-] [IRAK-1-4 Inhibitor I]
In short: as §1

ibrutinib = compound: C=CC(=O)N1CCC[C@@H](n2nc(-c3ccc(Oc4ccccc4)cc3)c3c(N)ncnc32)C1 [ibrutinib]
In short: as §1

[10] = compound: CC(=O)c1cnc2ccc(-c3cc(Cl)c(O)c(Cl)c3)nc2c1N[C@H]1CC[C@H](CN(C)C)CC1
In short: as §1

ralimetinib = compound: CC(C)(C)Cn1c(N)nc2ccc(-c3[nH]c(C(C)(C)C)nc3-c3ccc(F)cc3)nc21 [ralimetinib]
In short: as §1

[11] = compound: CC(C)(O)CC(=O)NCCn1ccc2ncnc(Nc3ccc(Oc4cccc(C(F)(F)F)c4)c(Cl)c3)c21
In short: as §1

[12] = compound: CC(C)C1=C2N=C(C=C(N2N=C1)NCC3=CC=CC=C3)NCCCCCCN
In short: as §1

[13] = compound: CC(C)C[C@@H](C=O)NC(=O)[C@H](CC(C)C)NC(=O)[C@H](CC(C)C)NC(=O)OCc1ccccc1
In short: as §1

pinometostat = compound: CC(C)N(C[C@H]1O[C@@H](n2cnc3c(N)ncnc32)[C@H](O)[C@@H]1O)[C@H]1C[C@@H](CCc2nc3cc(C(C)(C)C)ccc3[nH]2)C1 [pinometostat]
In short: as §1

[14] = compound: CC1=C(C(CC(=O)N1)C2=CC=C(C=C2)C(F)(F)F)C(=O)NC3=C(C=C4C(=C3)C=NN4)F
In short: as §1

[15] = compound: CC1=C(C2=C(C=C1)C(=O)C3=CC=CC=C3N2CCCN)C
In short: as §1

Measured: log2 fold change

PNPLA6 (UniProt Q8IY17)
inactive: erlotinib 0 | [1] 0.027 | [2] 0.062 | [3] 0.264 | [4] -0.009 | [5] 0.024 | [6] -0.036 | [7] 0.003 | [8] 0 | [9] -0.008 | IRAK-1-4 Inhibitor I -0.054 | ibrutinib 0.019 | [10] -0.066 | ralimetinib 0.101 | [11] -0.179 | [12] -0.006 | [13] 0.013 | pinometostat 0.085 | [14] 0.043 | [15] 0.075

POFUT2 (UniProt Q9Y2G5)
inactive: erlotinib -0.056 | [1] -0.017 | [2] -0.069 | [3] 0.006 | [4] 0.043 | [5] 0.01 | [6] -0.044 | [7] -0.033 | [8] -0.023 | [9] 0.054 | IRAK-1-4 Inhibitor I -0.06 | ibrutinib -0.03 | [10] -0.037 | ralimetinib 0.044 | [11] 0.039 | [12] -0.074 | [13] -0.002 | pinometostat 0.07 | [14] -0.007 | [15] 0.014

PLXNA1 (UniProt Q9UIW2)
inactive: erlotinib -0.025 | [1] 0.034 | [2] 0.055 | [3] 0.011 | [4] 0.014 | [5] -0.01 | [6] -0.013 | [7] -0.026 | [8] -0.013 | [9] 0.053 | IRAK-1-4 Inhibitor I 0.004 | ibrutinib 0.005 | [10] -0.085 | ralimetinib -0.028 | [11] -0.015 | [12] 0.099 | [13] 0.014 | pinometostat -0.015 | [14] -0.055 | [15] 0.051

POFUT1 (UniProt Q9H488)
inactive: erlotinib -0.043 | [1] 0.045 | [2] 0.013 | [3] -0.003 | [4] -0.051 | [5] 0.011 | [6] 0.041 | [7] 0 | [8] 0.086 | [9] -0.015 | IRAK-1-4 Inhibitor I 0.032 | ibrutinib 0.02 | [10] 0.014 | ralimetinib -0.042 | [11] -0.006 | [12] 0.076 | [13] 0.13 | pinometostat 0.024 | [14] -0.01 | [15] 0.427

PPA1 (UniProt Q15181)
inactive: erlotinib 0.039 | [1] 0.039 | [2] 0.016 | [3] 0 | [4] 0.039 | [5] -0.054 | [6] -0.016 | [7] 0.032 | [8] 0.015 | [9] -0.031 | IRAK-1-4 Inhibitor I 0.028 | ibrutinib -0.034 | [10] -0.008 | ralimetinib -0.048 | [11] -0.033 | [12] 0.035 | [13] -0.006 | pinometostat -0.033 | [14] -0.044 | [15] -0.009

Reprinted from the listing (2 entries):
PLXNA1 (UniProt Q9UIW2)
inactive: erlotinib -0.025 | [1] 0.034 | [2] 0.055 | [3] 0.011 | [4] 0.014 | [5] -0.01 | [6] -0.013 | [7] -0.026 | [8] -0.013 | [9] 0.053 | IRAK-1-4 Inhibitor I 0.004 | ibrutinib 0.005 | [10] -0.085 | ralimetinib -0.028 | [11] -0.015 | [12] 0.099 | [13] 0.014 | pinometostat -0.015 | [14] -0.055 | [15] 0.051

POFUT1 (UniProt Q9H488)
inactive: erlotinib -0.043 | [1] 0.045 | [2] 0.013 | [3] -0.003 | [4] -0.051 | [5] 0.011 | [6] 0.041 | [7] 0 | [8] 0.086 | [9] -0.015 | IRAK-1-4 Inhibitor I 0.032 | ibrutinib 0.02 | [10] 0.014 | ralimetinib -0.042 | [11] -0.006 | [12] 0.076 | [13] 0.13 | pinometostat 0.024 | [14] -0.01 | [15] 0.427

(continued)

PPIE (UniProt Q9UNP9)
inactive: erlotinib 0.016 | [1] -0.017 | [2] 0.065 | [3] -0.053 | [4] -0.03 | [5] 0.063 | [6] 0.071 | [7] -0.025 | [8] 0.049 | [9] 0.037 | IRAK-1-4 Inhibitor I 0.019 | ibrutinib -0.042 | [10] 0.067 | ralimetinib 0.002 | [11] 0.038 | [12] 0.096 | [13] -0.06 | pinometostat -0.008 | [14] -0.019 | [15] -0.081

PLS3 (UniProt P13797)
inactive: erlotinib 0.01 | [1] -0.043 | [2] 0.014 | [3] -0.018 | [4] 0.043 | [5] -0.006 | [6] -0.085 | [7] -0.032 | [8] 0.011 | [9] 0.021 | IRAK-1-4 Inhibitor I 0.012 | ibrutinib -0.016 | [10] -0.029 | ralimetinib -0.105 | [11] 0.007 | [12] 0 | [13] 0.031 | pinometostat -0.03 | [14] 0.023 | [15] -0.027

POLG (UniProt P54098)
inactive: erlotinib 0.052 | [1] -0.213 | [2] 0.035 | [3] 0.039 | [4] 0.308 | [5] 0.012 | [6] -0.175 | [7] -0.208 | [8] -0.102 | [9] 0.191 | IRAK-1-4 Inhibitor I 0.136 | ibrutinib -0.034 | [10] -0.129 | ralimetinib -0.213 | [11] -0.089 | [12] -0.031 | [13] 0.058 | pinometostat 0.115 | [14] -0.074 | [15] -0.022

PNPO (UniProt Q9NVS9)
inactive: erlotinib -0.04 | [1] 0.023 | [2] -0.002 | [3] 0.077 | [4] 0.049 | [5] -0.015 | [6] 0.123 | [7] -0.014 | [8] -0.01 | [9] 0.002 | IRAK-1-4 Inhibitor I 0.031 | ibrutinib 0 | [10] -0.086 | ralimetinib 0.062 | [11] -0.012 | [12] 0.072 | [13] -0.012 | pinometostat -0.055 | [14] 0.002 | [15] 0.037

PNISR (UniProt Q8TF01)
inactive: erlotinib -0.012 | [1] 0.008 | [2] 0.001 | [3] 0.012 | [4] -0.059 | [5] 0.028 | [6] 0.028 | [7] 0 | [8] 0.02 | [9] 0.027 | IRAK-1-4 Inhibitor I 0.007 | ibrutinib 0.006 | [10] -0.038 | ralimetinib 0.032 | [11] 0.008 | [12] 0.025 | [13] -0.022 | pinometostat -0.035 | [14] 0.015 | [15] -0.116

POLE3 (UniProt Q9NRF9)
inactive: erlotinib 0.016 | [1] 0.016 | [2] -0.026 | [3] -0.033 | [4] -0.007 | [5] -0.008 | [6] -0.011 | [7] -0.001 | [8] 0.02 | [9] 0.049 | IRAK-1-4 Inhibitor I 0.028 | ibrutinib -0.053 | [10] -0.046 | ralimetinib 0.073 | [11] 0.003 | [12] -0.006 | [13] -0.024 | pinometostat 0.007 | [14] 0.006 | [15] -0.028

PPIP5K2 (UniProt O43314)
inactive: erlotinib 0.007 | [1] 0.047 | [2] 0.053 | [3] 0.021 | [4] 0.035 | [5] -0.001 | [6] -0.014 | [7] 0.007 | [8] -0.001 | [9] 0 | IRAK-1-4 Inhibitor I 0.01 | ibrutinib 0.006 | [10] -0.049 | ralimetinib -0.015 | [11] -0.029 | [12] 0.024 | [13] 0.007 | pinometostat -0.042 | [14] -0.013 | [15] 0.027

POLR3G (UniProt O15318)
inactive: erlotinib 0.09 | [1] -0.07 | [2] 0.078 | [3] 0.096 | [4] -0.001 | [5] 0.074 | [6] 0.017 | [7] 0 | [8] -0.07 | [9] 0.043 | IRAK-1-4 Inhibitor I 0.04 | ibrutinib -0.036 | [10] -0.123 | ralimetinib 0.016 | [11] -0.069 | [12] 0.092 | [13] -0.026 | pinometostat -0.025 | [14] 0.014 | [15] -0.12

PLOD3 (UniProt O60568)
inactive: erlotinib -0.077 | [1] -0.033 | [2] -0.1 | [3] 0.018 | [4] 0.048 | [5] 0.054 | [6] -0.013 | [7] 0.018 | [8] 0.045 | [9] -0.039 | IRAK-1-4 Inhibitor I -0.038 | ibrutinib -0.04 | [10] -0.014 | ralimetinib 0.008 | [11] 0.065 | [12] 0.018 | [13] 0.026 | pinometostat 0.071 | [14] 0.007 | [15] -0.004

PPCDC (UniProt Q96CD2)
inactive: erlotinib 0.02 | [1] 0.003 | [2] -0.036 | [3] -0.102 | [4] 0.095 | [5] -0.05 | [6] 0.047 | [7] 0.009 | [8] -0.198 | [9] 0.033 | IRAK-1-4 Inhibitor I 0.029 | ibrutinib -0.002 | [10] -0.03 | ralimetinib -0.075 | [11] -0.052 | [12] 0.063 | [13] -0.045 | pinometostat -0.104 | [14] 0.018 | [15] 0.03

PODXL2 (UniProt Q9NZ53)
inactive: erlotinib -0.001 | [1] 0.037 | [2] -0.002 | [3] 0.1 | [4] -0.207 | [5] 0.021 | [6] -0.011 | [7] -0.03 | [8] -0.064 | [9] 0.079 | IRAK-1-4 Inhibitor I 0.115 | ibrutinib -0.027 | [10] -0.03 | ralimetinib 0.042 | [11] -0.007 | [12] 0.021 | [13] -0.022 | pinometostat 0.021 | [14] -0.033 | [15] -0.132

— the supplement of paper PMC10849652
